Test results reported in the supplement of paper PMC3334620.
In all, about 33,000 sequences were measured (“E-score (-0.5 to 0.5)”: median about -0.0014, highest 2% from about 0.25 on). This is one part of the list.

What follows are sequences tested against T1, Cad1 (UniProt P24813) (assay: PBM E-score (8-mer binding enrichment) (E-score (-0.5 to 0.5)); higher = stronger / more preferred TF binding). Conditions: protein concentration: 100 nM; construct: GST-full length.
T1 sequence: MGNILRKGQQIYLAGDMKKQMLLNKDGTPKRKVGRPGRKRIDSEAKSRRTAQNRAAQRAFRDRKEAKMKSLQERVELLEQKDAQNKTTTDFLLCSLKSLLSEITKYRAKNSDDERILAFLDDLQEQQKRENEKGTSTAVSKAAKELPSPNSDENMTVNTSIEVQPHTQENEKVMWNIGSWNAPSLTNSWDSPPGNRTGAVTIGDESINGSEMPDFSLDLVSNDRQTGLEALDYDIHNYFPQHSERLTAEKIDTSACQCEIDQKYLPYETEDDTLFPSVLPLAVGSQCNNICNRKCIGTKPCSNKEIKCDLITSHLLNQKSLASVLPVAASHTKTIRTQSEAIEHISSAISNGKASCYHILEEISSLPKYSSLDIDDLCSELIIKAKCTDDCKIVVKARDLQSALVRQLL
Description: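 Universal 'all 10-mer' protein binding microarrays (Agilent AMADID 015681) probed with GST-tagged S. cerevisiae TFs (full-length or DBD) made by in vitro transcription/translation (PURExpress), about 100-200 nM. Bound TF was detected with fluorescent anti-GST. Each ungapped 8-mer (which stands for itself and its reverse complement) is scored by the PBM enrichment score (E-score), a modified Wilcoxon-Mann-Whitney statistic from -0.5 to +0.5, computed with the Universal PBM Analysis Suite. Scale: above 0.35 generally sequence-specific binding.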

Sequence | PBM E-score
CCAAGCCC | -0.182
GTTGCGGA | -0.00763
TTGATCAA | 0.187
ACGGACGA | 0.119
TAACCTGA | -0.148
ATGTTTTA | 0.0134
AGCATCTG | -0.0254
AGAGAGCC | -0.371
CAAAATGC | 0.0501
AGCCTGTC | -0.12
AATATGGC | 0.0624
AGTGCACA | -0.0428
AGGGTTAT | 0.057
CCATGAGA | -0.0668
GCTATGTA | -0.0635
ACATTGGG | -0.12
GTGGGATA | 0.0142
ATCAGTGG | -0.238
CTAACGCC | -0.0478
ATTCTACA | 0.129
AGAGGGCC | -0.183
AAATTGGG | 0.0676
TACTTAGA | 0.00588
ACCAGGCA | -0.169
GACGCGCC | -0.0624

Sequence | PBM E-score
ACTCGCGA | 0.271
AGCAGCAG | 0.02
CGACCACA | -0.0866
ACCACTGG | 0.0192
CGCCGAAG | -0.118
GCCCAGGC | -0.186
ACTGCAAT | 0.062
ACAATTCC | 0.0313
ACAACGAA | 0.145
CGTTGGGA | 0.00172
GACAGTAA | 0.0752
TGAATAAA | 0.0428
ATGAAGGG | -0.145
AGCTGGAG | -0.195
ATGCGCCC | 0.0507
ATCGTTTA | 0.121
CAAGCTAC | -0.0346
AGGGCTTG | 0.0467
CGGGATAG | 0.00323
CTACGGAG | -0.199
GCCAGACC | -0.146
ACACCACG | -0.129
CAATGAAC | -0.00085
CTATCGTA | -0.0798
CAATTTTC | 0.125

Sequence | PBM E-score
AGATCCTC | -0.13
ACCATGAG | -0.194
CGATCCCA | -0.0615
AAGAAACT | -0.0723
ATCTGTTA | 0.154
AGGGGGCA | -0.327
CCTTATCC | -0.149
CCCCCTGA | -0.414
ACGAGCAA | -0.0425
ATTATGGC | 0.138
CAAAATGA | 0.0242
GTGGTATA | 0.0749
AACATAAT | 0.19
AATGTCGG | 0.0242
ACTCGATA | -0.0222
CATCGAAA | 0.0346
TATCATCA | 0.123
AATACGCG | 0.079
CCCCTATA | -0.144
AATGACCC | -0.191
CCAAAGCG | -0.0811
ATATTGGG | 0.0881
AGTTAACT | 0.0483
CATGTCAA | -0.0895
GAATCAGC | 0.0939

Sequence | PBM E-score
CAGGCCAA | -0.0389
AGAGCGCG | -0.0178
ATCTCAAC | 0.185
CCCTATTA | -0.0208
ACAGGGTG | -0.264
ACGAGTCT | -0.0978
CTGGCAGA | 0.0308
CACCAATC | -0.15
CACGTTAG | -0.116
CTACGTCA | -0.00864
ATCACGGA | 0.204
GTCAACTA | 0.0756
ACAGCGGT | -0.0875
GGCGTTAA | 0.0252
CCGTGTCG | -0.0349
ACAGAGCC | -0.108
ATGTGCCC | -0.071
CCTGAGTC | -0.0376
GAGAACGC | -0.0828
CTCGCCAA | -0.0361
CCGCATAG | -0.0749
GCTTAAAC | -0.048
ACCATGTA | -0.00717
ATTTGGTG | -0.0697
ATTCCGTA | -0.0372

Sequence | PBM E-score
ATCACCGG | -0.0703
GTAATGAA | 0.0605
AAACCATT | -0.0299
AGGAGCAG | -0.229
CATTACTC | 0.0943
TCCCCTCA | -0.0995
GGAGAAGA | -0.19
AAGTCCCT | -0.204
GCGTTTAC | -0.0877
CGCCGTAA | 0.105
CTTTGCTA | -0.212
TAGCCCCA | 0.103
ACCATATG | -0.012
CGCGTGCC | 0.0655
CAGAAGAC | 0.0287
AGGTCCAG | 0.099
AAACTCGA | 0.00847
CTGCTCGA | -0.115
CCCCCTCC | -0.405
GTGAGGCA | -0.09
CTAAGGAA | 0.11
ACACATGG | -0.00572
ATAGGGCG | -0.0809
AGCGTTCG | -0.154
ACAGGTGG | -0.0628

Sequence | PBM E-score
CGCCCACA | 0.0534
ATAAGCCA | 0.063
CTATTGAC | 0.0653
CGTAAGAA | 0.014
AAGGTAGC | -0.123
CCTGCACG | -0.0479
ATGCTACA | -0.0425
AGTATAGC | 0.059
GATAATCC | 0.0936
AGAGCTGC | -0.127
AACCAAGC | 0.03
ATGCGTGA | 0.0985
ATGCTGTC | 0.0175
GCTCACGA | -0.0415
GATTGTCC | 0.0989
CCGCCGGA | 0.0323
CTATGGTA | -0.00468
ACAATATC | 0.185
CGGTCGGA | -0.00223
ACAGTTAC | 0.0388
AACCACGC | 0.00303
CGCGTACA | -0.008
AGTGCGTC | -0.0502
GACCATAA | 0.0834
CGTAGACC | -0.216

Sequence | PBM E-score
TAAAGGAA | -0.0537
CTTACAGC | 0.0994
CCACTCAG | -0.085
CAACGGAG | -0.0641
CCCCGGAC | -0.244
CACCCGGA | 0.0199
GGAGGGAC | -0.17
CAGGACTG | -0.0875
CTTACTAC | 0.0721
ATCGCCCC | -0.262
CGATAGAC | 0.0203
ATTTTTGG | 0.0896
ACTAGTGC | 0.0304
CACACCCA | 0.0321
ACACTAAC | 0.199
CCGACGTA | -0.19
GTACTAAA | 0.054
CCTCCTAC | -0.242
GTCTCCAA | 0.0244
CCTTCATA | 0.037
GCCCCGCC | 0.168
CGTCGTGA | -0.0592
ACTAACGA | 0.178
GTGCGCAA | 0.0688
ACCTTTGG | -0.31

Given as comma-separated lines: part of the list above.
Sequence,PBM E-score
GGAGAAGA,-0.19
AAGTCCCT,-0.204
GCGTTTAC,-0.0877
CGCCGTAA,0.105
CTTTGCTA,-0.212
TAGCCCCA,0.103
ACCATATG,-0.012
CGCGTGCC,0.0655
CAGAAGAC,0.0287
AGGTCCAG,0.099
AAACTCGA,0.00847
CTGCTCGA,-0.115
CCCCCTCC,-0.405
GTGAGGCA,-0.09
CTAAGGAA,0.11
ACACATGG,-0.00572
ATAGGGCG,-0.0809
AGCGTTCG,-0.154
ACAGGTGG,-0.0628
CGCCCACA,0.0534
ATAAGCCA,0.063
CTATTGAC,0.0653
CGTAAGAA,0.014
AAGGTAGC,-0.123
CCTGCACG,-0.0479
ATGCTACA,-0.0425
AGTATAGC,0.059
GATAATCC,0.0936
AGAGCTGC,-0.127
AACCAAGC,0.03
ATGCGTGA,0.0985
ATGCTGTC,0.0175
GCTCACGA,-0.0415
GATTGTCC,0.0989
CCGCCGGA,0.0323
CTATGGTA,-0.00468
ACAATATC,0.185
CGGTCGGA,-0.00223
ACAGTTAC,0.0388
AACCACGC,0.00303
CGCGTACA,-0.008
AGTGCGTC,-0.0502
GACCATAA,0.0834
CGTAGACC,-0.216
TAAAGGAA,-0.0537
CTTACAGC,0.0994
CCACTCAG,-0.085
CAACGGAG,-0.0641
CCCCGGAC,-0.244
CACCCGGA,0.0199
GGAGGGAC,-0.17
CAGGACTG,-0.0875
CTTACTAC,0.0721
ATCGCCCC,-0.262
CGATAGAC,0.0203
ATTTTTGG,0.0896
ACTAGTGC,0.0304
CACACCCA,0.0321
ACACTAAC,0.199
CCGACGTA,-0.19
GTACTAAA,0.054
CCTCCTAC,-0.242
GTCTCCAA,0.0244
CCTTCATA,0.037
GCCCCGCC,0.168
CGTCGTGA,-0.0592
ACTAACGA,0.178

Following part:

Sequence | PBM E-score
GAGTTAGC | 0.119
AGGGGACT | -0.179
GCAACTAA | 0.139
CGTTTCGC | 0.0794
TCCCTCGA | -0.025
CGAACGCG | 0.138
CAAGAAGC | 0.0604
AGGCCTCA | -0.24
AGTAAACA | 0.182
GTCGTCTA | -0.0931
CAGCATGG | 0.0302
GAAATACC | 0.157
GAAGCCCC | -0.22
CAGCGAGC | 0.159
ATAGGAAT | -0.0155
AGGCAGGG | -0.133
AGGAGAGG | -0.343
CTCTGTAC | -0.0443
ATCAGAAT | 0.0378
CTACGTTC | -0.115
ACGCACCC | -0.147
AGCAATCA | 0.216
GAACGCTC | 0.0305
AGCCCGCC | -0.0425
ATATGACC | -0.0229

Given as labelled records: part of the list above
ACACATGG
  PBM E-score: -0.00572
ATAGGGCG
  PBM E-score: -0.0809
AGCGTTCG
  PBM E-score: -0.154
ACAGGTGG
  PBM E-score: -0.0628

(cont.)

Sequence | PBM E-score
CTTCATGA | 0.207
ACTAACTG | 0.0989
GACATACA | 0.174
ACCCTCGG | -0.201
CATACTGA | 0.103
CATTTGTC | 0.169
GTAGAGGA | -0.258
CATGAGGG | -0.323
GCCAGAGA | -0.0334
AAGGAGGA | -0.254
GAAGGTTA | -0.00292
GCCACTGA | -0.213
CCCTTGAG | 0.0254
ATAACTTC | 0.144
AACGTCTA | 0.0127
GGAAAATA | 0.17
GAGCCTGA | -0.0223
CCATAACG | 0.00169
AAATACCT | 0.0991
